## Results from one PubChem assay

Data taken from PubChem BioAssay AID912, deposited by NCATS (2007).

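Uptake of anthrax lethal toxin into cultured cells, read by FRET (460/530 nm ratio) and reported from the 460 nm channel; the cell line is not named here. Each compound was tested as a concentration series from about 0.0005 to 40 µM. The number is the fitted AC50 of the 460 nm signal alone; lower values mean a more potent effect. A falling signal goes with compounds filed as inhibitors or cytotoxic, a rising one with activators or fluorescent compounds (inferred from the filed classes).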

Values are in µM. Common to all entries: measured here: 460 nm channel. This is a side read-out of the assay, for part of the compounds, not drawn at random. A potency from a partial, single-point or poor curve is only a rough figure. The first word of each remark tells which way the curve ran; it can be opposite to the aim of the assay.

COc1ccc(Oc2ncc3nc(C)c(=O)n(C[C@H]4CCCO4)c3n2)cc1 gave AC50 5.012 µM (falling, single point).
O=C(CSc1nc2ccccc2o1)Nc1ccccc1N1CCCCCC1 gave AC50 6.31 µM (falling, partial curve).
Cc1ccc(-c2csc(N)n2)s1 gave AC50 3.162 µM (falling, single point).
CCN1CCC[C@H]1CNC(=O)c1c(O)c(Cl)cc(Cl)c1OC gave AC50 31.62 µM (rising, partial curve).
CCC(C)C1C(C#N)=C(N)OC2=C1C(=O)CC(C)(C)C2 (configuration not stated) gave AC50 10 µM (rising, partial curve).
O=C(Nc1ccccc1NC(=O)c1c(F)c(F)c(F)c(F)c1F)c1c(F)c(F)c(F)c(F)c1F gave AC50 7.943 µM (rising, partial curve).
CC(C)Nc1ncnc2c1cnn2-c1ccc(Cl)cc1 gave AC50 31.62 µM (falling, single point).
Cc1ccc(O)c(CC(C)C)n1 gave AC50 10 µM (falling, partial curve).
CCOC(=O)c1c(-n2cnnn2)sc(C)c1C gave AC50 0.03981 µM (falling, full curve, poor fit).
CC(=O)N[C@@H](C(=O)O)C(C)(C)SN=O gave AC50 5.012 µM (falling, full curve).
O=S(=O)(c1cccc(C(F)(F)F)c1)N1c2ccccc2-n2cccc2[C@H]1c1cccnc1 gave AC50 3.162 µM (falling, partial curve).
CCOC(OCC)P(=O)(O)CCCNCc1ccc(Cl)c(Cl)c1 gave AC50 12.59 µM (falling, single point).
C=CCn1c(NC(=O)c2ccco2)c(S(=O)(=O)c2ccccc2)c2nc3ccccc3nc21 gave AC50 12.59 µM (rising, partial curve).
COc1ccc(-c2coc3cc(O[C@@H]4O[C@@H](CO)[C@@H](O)[C@@H](O)[C@H]4O)cc(O)c3c2=O)cc1 gave AC50 25.12 µM (falling, partial curve).
COC(=O)C(NC(=O)C(C)Oc1ccccc1)C(C)C (configuration not stated) gave AC50 5.012 µM (rising, single point).
COc1ccc(NC(=O)c2ccc(-c3ccc(-c4noc(C)n4)cc3C)cc2)cc1N1CCN(C)CC1 gave AC50 25.12 µM (falling, partial curve).
O=[N+]([O-])O[C@H]1CO[C@H]2[C@H]1OC[C@@H]2O[N+](=O)[O-] gave AC50 0.001995 µM (rising, full curve, poor fit).
CCOC(=O)Cc1csc(NC(=O)CSc2ncnc3c2cnn3-c2ccc(OC)cc2)n1 gave AC50 10 µM (falling, partial curve).
COc1cc(C(=O)NCc2nnc(SCC(=O)Nc3cc(C)cc(C)c3)o2)cc(OC)c1OC gave AC50 5.012 µM (rising, single point).
CN(C)CCCCSC(=N)N gave AC50 12.59 µM (rising, single point).
O=C(NCc1ccco1)C1OCCc2ccccc21 (configuration not stated) gave AC50 31.62 µM (rising, single point).
CN1CCN(C2=C(Cl)C(=O)N(Cc3ccccc3)C2=O)CC1 gave AC50 19.95 µM (falling, single point).
CCN1C(=O)[C@H]2[C@H]3[C@H](O)[C@H](O)C/C(=N/OC[C@@H](O)[C@H]4O[C@H]5OC(C)(C)O[C@H]5[C@@H]4O)[C@@H]3CC[C@@H]2C1=O gave AC50 5.012 µM (rising, single point).
CCc1ccc(NC(=O)CNS(=O)(=O)c2c(C)noc2C)cc1 gave AC50 5.012 µM (rising, single point).

2 of the entries, repeated:

- O=C(CSc1nc2ccccc2o1)Nc1ccccc1N1CCCCCC1 | AC50 6.31 µM (falling, partial curve)
- CCc1ccc(NC(=O)CNS(=O)(=O)c2c(C)noc2C)cc1 | AC50 5.012 µM (rising, single point)